PubChem BioAssay AID1224828 – NIAID | 2016
Assay: 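Regulators linking TLR4 signalling to p65 nuclear translocation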 (primary screen). Cell system: mouse RAW264.7 G9 macrophage reporter cells (GFP-p65, Tnf promoter-mCherry). Knock-down reagent: siRNA pool against mouse genes, 100 nM. Time to read-out: 2 days siRNA transfection, then 40 min LPS before fixation. Conditions: LPS (Salmonella minnesota R595) at 10 ng/ml. Read-out: 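Microscopy ratio of nuclear to perinuclear-ring GFP-p65 signal, scaled to the plate median; gene score is the average of two replicate robust z-scores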. Scale: p65 translocation robust z-score: higher = more nuclear NF-kappaB p65 after LPS than the plate median; nuclear/cytoplasmic p65 ratio: higher = more nuclear NF-kappaB p65. Active means: 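Called active when z exceeds 3.3 or falls under -1.56 (median of Tlr4 controls), giving activity score of at least 50; no calls for control wells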. Meaning of the calls: active = hit (p65 shift raised or lowered); inactive = no clear change.
This is a random part of about 17,000 deposited reagents. Over the whole deposit, 762 (4.5%) got an active call. 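Active calls include both raised and lowered p65 entry, mostly lowered; wells with fewer than 50 cells lack a z-score.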 The raw values are shown without normalisation. Entries without a mark were called inactive.

Tff1 [SID315469680] → p65 translocation robust z-score = 0.19; nuclear/cytoplasmic p65 ratio, rep 1 = 1.32; nuclear/cytoplasmic p65 ratio, rep 2 = 1.21; low cell count flag = enough cells to score
Pask [SID315480841] → p65 translocation robust z-score = -0.19; nuclear/cytoplasmic p65 ratio, rep 1 = 1.59; nuclear/cytoplasmic p65 ratio, rep 2 = 1.35; low cell count flag = enough cells to score
Mmp21 [SID315477885] → p65 translocation robust z-score = -1.13; nuclear/cytoplasmic p65 ratio, rep 1 = 1.27; nuclear/cytoplasmic p65 ratio, rep 2 = 1.22; low cell count flag = enough cells to score
Alg1 [SID315477525] → p65 translocation robust z-score = 0.76; nuclear/cytoplasmic p65 ratio, rep 1 = 1.62; nuclear/cytoplasmic p65 ratio, rep 2 = 1.9; low cell count flag = enough cells to score
Myrip [SID315479801] → p65 translocation robust z-score = 0.74; nuclear/cytoplasmic p65 ratio, rep 1 = 1.53; nuclear/cytoplasmic p65 ratio, rep 2 = 1.45; low cell count flag = enough cells to score
Csn1s1 [SID315466165] → p65 translocation robust z-score = 1.77; nuclear/cytoplasmic p65 ratio, rep 1 = 1.87; nuclear/cytoplasmic p65 ratio, rep 2 = 2.04; low cell count flag = enough cells to score
Sprr2d [SID315469443] → p65 translocation robust z-score = 0.26; nuclear/cytoplasmic p65 ratio, rep 1 = 1.41; nuclear/cytoplasmic p65 ratio, rep 2 = 1.3; low cell count flag = enough cells to score
Abca13 [SID315480760] → p65 translocation robust z-score = 1.25; nuclear/cytoplasmic p65 ratio, rep 1 = 1.62; nuclear/cytoplasmic p65 ratio, rep 2 = 1.7; low cell count flag = enough cells to score
Wdr25 [SID315477728] → p65 translocation robust z-score = -1.29; nuclear/cytoplasmic p65 ratio, rep 1 = 1.28; nuclear/cytoplasmic p65 ratio, rep 2 = 1.74; low cell count flag = enough cells to score
Mief1 [SID315479449] → p65 translocation robust z-score = 0.51; nuclear/cytoplasmic p65 ratio, rep 1 = 1.74; nuclear/cytoplasmic p65 ratio, rep 2 = 1.71; low cell count flag = enough cells to score
Slc35a1 [SID315470305] → p65 translocation robust z-score = -0.48; nuclear/cytoplasmic p65 ratio, rep 1 = 1.2; nuclear/cytoplasmic p65 ratio, rep 2 = 1.2; low cell count flag = enough cells to score
Spart [SID315478696] → p65 translocation robust z-score = 0.12; nuclear/cytoplasmic p65 ratio, rep 1 = 1.49; nuclear/cytoplasmic p65 ratio, rep 2 = 1.65; low cell count flag = enough cells to score
Ppp1r7 [SID315472404] → p65 translocation robust z-score = -0.35; nuclear/cytoplasmic p65 ratio, rep 1 = 1.4; nuclear/cytoplasmic p65 ratio, rep 2 = 1.41; low cell count flag = enough cells to score
Atad3aos [SID315474056] → nuclear/cytoplasmic p65 ratio, rep 1 = 1.16; nuclear/cytoplasmic p65 ratio, rep 2 = 1.24; low cell count flag = fewer than 50 cells per well; well left out of scoring

A portion of the results above, as a working copy:
Csn1s1 [SID315466165] → p65 translocation robust z-score = 1.77; nuclear/cytoplasmic p65 ratio, rep 1 = 1.87; nuclear/cytoplasmic p65 ratio, rep 2 = 2.04; low cell count flag = enough cells to score
Sprr2d [SID315469443] → p65 translocation robust z-score = 0.26; nuclear/cytoplasmic p65 ratio, rep 1 = 1.41; nuclear/cytoplasmic p65 ratio, rep 2 = 1.3; low cell count flag = enough cells to score
